# Source: PMC7819943, “Rice protein-binding microarrays: a tool to detect cis-acting elements near promoter regions in rice”
# Sequences of proteins named here, by UniProt entry; tags and fusion partners are left off.
# UniProt Q0JBA9, entry or part of it: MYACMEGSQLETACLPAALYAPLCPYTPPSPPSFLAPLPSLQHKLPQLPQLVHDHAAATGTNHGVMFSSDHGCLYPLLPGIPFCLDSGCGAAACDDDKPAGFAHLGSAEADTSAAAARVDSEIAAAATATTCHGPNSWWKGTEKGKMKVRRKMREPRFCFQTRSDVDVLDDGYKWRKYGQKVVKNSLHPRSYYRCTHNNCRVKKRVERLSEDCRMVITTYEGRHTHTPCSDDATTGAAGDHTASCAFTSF
# The other results are listed elsewhere or left out.
# Molecular target: OsWRKY34 (Oryza sativa, UniProt Q0JBA9 1-250)
# Test: protein-binding microarray (RPBM); PBS, 2% BSA, 51.3 ng/ul salmon testes DNA, 50 uM zinc acetate, 200 nM TF, 25 C, 1 h; high values mean tight binding
# Details: protein: recombinant; tags: N-terminal polyhistidine and DsRed monomer fusion (pET32a); label: CyDye5-dUTP incorporated in the synthesized complementary strand; 3' TTTTT single-stranded linker to array surface; dsDNA, one strand shown
# How it was run: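 Transcription factors, each fused N-terminally to a polyhistidine tag and DsRed, were expressed in E. coli BL21-CodonPlus and purified on Ni–NTA. A custom Agilent array was made double-stranded by primer extension with Cy5-dUTP and blocked with 2% BSA. It was incubated with 200 nM protein in PBS, 2% BSA, salmon testes DNA and 50 µM zinc acetate at 25 °C for 1 h, then washed. The binding signal is per-feature fluorescence intensity (arbitrary units) read on an Axon 4000B scanner.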
row,Sequence,binding signal
1,AAGCGCCCACATGTGTTGTGGAGGTCTCCCACTTTTTTTTCGGAGTCACCTAGTGCAG,10900 fluorescence intensity (a.u.)
2,CTAACCCGCGCCCCAACCCTAGCCGCCTCCGCCCCGCCTCCGGAGTCACCTAGTGCAG,8920 fluorescence intensity (a.u.)
3,TCCACGAGCTTGTTTTCATGTTTAGAGTAACTTTTCCAAACGGAGTCACCTAGTGCAG,9180 fluorescence intensity (a.u.)
4,AGGTTGAGGTTCTCCCTCCACGTCCTCTTGGGTGGCTTCTCGGAGTCACCTAGTGCAG,8430 fluorescence intensity (a.u.)
5,GTCGATTGTTTTCTACTCCACTTTTCTCTCTCTCGGTCTCCGGAGTCACCTAGTGCAG,11700 fluorescence intensity (a.u.)
6,TCATCTGCTCCAAATTAAGCATTGCATCATCTACTCTGCCCGGAGTCACCTAGTGCAG,8390 fluorescence intensity (a.u.)
7,CATCATTGGTGATCTCCCTTCATCCTCCTTTTAGCTTTGCCGGAGTCACCTAGTGCAG,9360 fluorescence intensity (a.u.)
8,GATCTCACTGTTTTCTTCCATCCACCATCTTCTTTTCCGGCGGAGTCACCTAGTGCAG,11500 fluorescence intensity (a.u.)
9,GCGATTCTTGCCACTCGCCAATCGCCGCCACACCCAATCCCGGAGTCACCTAGTGCAG,8130 fluorescence intensity (a.u.)
10,TATATGAAATTTTCACACTTGTATTGTCTTAACTTTCCAGCGGAGTCACCTAGTGCAG,8520 fluorescence intensity (a.u.)
11,AAATTTAACTTTTACATCGCGTCCCACCGTCGCCGCGCTCCGGAGTCACCTAGTGCAG,8480 fluorescence intensity (a.u.)
12,GTTACGTTATATTTCACTGCTCAATTTAATGGTCTTGGTTCGGAGTCACCTAGTGCAG,11000 fluorescence intensity (a.u.)
13,TTGTCTTCAAGTTTTTTCCATTGTGTCAGGATGTGATCACCGGAGTCACCTAGTGCAG,9550 fluorescence intensity (a.u.)
14,ACAAACTGCAACTCGACAGGATTATAGCACAAATTATTTGCGGAGTCACCTAGTGCAG,8170 fluorescence intensity (a.u.)
15,AGGGGTTAGCTATTATCGGACAACTTAGCATATTGAAATTCGGAGTCACCTAGTGCAG,12600 fluorescence intensity (a.u.)
16,TCTCTCTTTCTTTCTATTTTTCTTTTCAGTCAGGTTAGTACGGAGTCACCTAGTGCAG,11000 fluorescence intensity (a.u.)
17,ACGATGGATCACACAAAGCTCTCTCAGCTGCTTCTCTTCACGGAGTCACCTAGTGCAG,9640 fluorescence intensity (a.u.)
18,TATCCCACCTACCATATACACACTGCGTCTTGGAGTCCGTCGGAGTCACCTAGTGCAG,8260 fluorescence intensity (a.u.)
19,GGGAGGGAGGGAGAGGGGCAAGTGTGATTGATGCACAAACCGGAGTCACCTAGTGCAG,8300 fluorescence intensity (a.u.)
20,GATTTTGGTCAACCTGCATCTGTTACTACAAGTAGTAAGTCGGAGTCACCTAGTGCAG,9410 fluorescence intensity (a.u.)
21,TTGATTGGCTTGGCTGGCTTTGGCTTCCCTGTTCGATATTCGGAGTCACCTAGTGCAG,10500 fluorescence intensity (a.u.)
22,GAGACCATCTCGGTTTCTTGCATCCTTTTCCCGTGTCTCGCGGAGTCACCTAGTGCAG,8060 fluorescence intensity (a.u.)
23,TGACGTTGACCATTTATCTAGTTTTTTTTAAAAAATAATACGGAGTCACCTAGTGCAG,11000 fluorescence intensity (a.u.)
24,ATCTTAACCGCAACAGCTTTGCATCTTTTTAGTACCTATTCGGAGTCACCTAGTGCAG,8170 fluorescence intensity (a.u.)
25,ACCATAAAGCCAAGTTTCATCCATAATCCTTATTTTTCATCGGAGTCACCTAGTGCAG,8670 fluorescence intensity (a.u.)
26,GCAGTTGGTGGTGTGTAGTGTGAGCTAAGGGTATTTGATCCGGAGTCACCTAGTGCAG,8620 fluorescence intensity (a.u.)
27,TGTTCTTGTTCTCTGCATTCTCTGAATTCTCTGTCTCCCTCGGAGTCACCTAGTGCAG,11400 fluorescence intensity (a.u.)

row,Sequence,binding signal
1,GGTCATACTCTCTTCGTCCCATTTAATGTACAATCATGCTCGGAGTCACCTAGTGCAG,8860 fluorescence intensity (a.u.)
2,TTAGTTTTGTTAGATCGTCGATTTTGATTAGTGCGTTTGACGGAGTCACCTAGTGCAG,9190 fluorescence intensity (a.u.)
3,TTCCTCCGTTTCACAATGTAAAATTTTCTAGCATTACTCTCGGAGTCACCTAGTGCAG,8660 fluorescence intensity (a.u.)
4,GCCAACCACCATTAGCCAACTAACTAATCATCGTCTACGTCGGAGTCACCTAGTGCAG,9880 fluorescence intensity (a.u.)
5,GCTCTCTCTCTCTCTCTCTCTCGCTGTCTCTCTCCCTCCCCGGAGTCACCTAGTGCAG,9110 fluorescence intensity (a.u.)
6,CTTTCCAGTTCCTTGTTTCTATCACACTCACTAGGACCAACGGAGTCACCTAGTGCAG,8900 fluorescence intensity (a.u.)
7,ATCCCCGGTCATCTCGCCTCGTCTCGTCCCGTCCCTGCGCCGGAGTCACCTAGTGCAG,15100 fluorescence intensity (a.u.)
8,TCTGGGAAAGAATCCCAAATGTGTCGCCTCTATCTCGCCTCGGAGTCACCTAGTGCAG,10400 fluorescence intensity (a.u.)
9,GAACTAACACACAAACTTCCAACTTTTCCATCACATCAAACGGAGTCACCTAGTGCAG,13200 fluorescence intensity (a.u.)
10,TGCTTACACACCATCCCATCCTCCCTCTCCACCGTCGGATCGGAGTCACCTAGTGCAG,8460 fluorescence intensity (a.u.)
11,CGATGGTTGGTTGTTATGTATTTTTAAGAATTTTTAGTACCGGAGTCACCTAGTGCAG,8060 fluorescence intensity (a.u.)
12,ACCGCACCACCTCTAGGTCGCCACGACCAAGAACACACATCGGAGTCACCTAGTGCAG,10600 fluorescence intensity (a.u.)
13,AGGAGCCAGACTTAGTTGGTGTAAGCCATTTACTAGTTGACGGAGTCACCTAGTGCAG,22800 fluorescence intensity (a.u.)
14,ATGATATGAGCTGATATTGTTATTCATCTCAACTTTTCTTCGGAGTCACCTAGTGCAG,8560 fluorescence intensity (a.u.)
15,TATGCTTCATCTGTTCTTCTACATTGTTATCTACTATCTGCGGAGTCACCTAGTGCAG,10100 fluorescence intensity (a.u.)
16,TTTGTTGCGTTTCTCCGCCCTTCGGCCACACCGGCCGGCTCGGAGTCACCTAGTGCAG,11600 fluorescence intensity (a.u.)
17,CAACACATTGCTGTAATTTGCCATCAGCTTTGGCCATCATCGGAGTCACCTAGTGCAG,10500 fluorescence intensity (a.u.)
18,GGGAGGGAGAGCGACGTGAGAGAGATGGGAGGGGAGGGAGCGGAGTCACCTAGTGCAG,10200 fluorescence intensity (a.u.)
19,GTCGGACGTTCCGTTTCCCACACTTCTGACTGCAAAAACCCGGAGTCACCTAGTGCAG,8170 fluorescence intensity (a.u.)
20,GGTGGGGTGAGCGTGTGTGCGGCGCTAGGGTTCGCGAGGGCGGAGTCACCTAGTGCAG,9200 fluorescence intensity (a.u.)
21,CTCCTCCTCTGGCGCCGCCGCTCCGATGCCGCCCACCGCCCGGAGTCACCTAGTGCAG,8240 fluorescence intensity (a.u.)
22,CTTCAAGGCTTTGTGGTGACACTGATATCTCTCTAGTCTCCGGAGTCACCTAGTGCAG,8680 fluorescence intensity (a.u.)
23,GCTCGATCTTCTTTTTTTTCAAATAGTTTGGATCATTTATCGGAGTCACCTAGTGCAG,10200 fluorescence intensity (a.u.)
24,AACTGATCCTAATTAACACTACCCATATACTCTTTTCGTCCGGAGTCACCTAGTGCAG,8060 fluorescence intensity (a.u.)
25,TTCTCTCAACCCCATCGGTCTCATGCCTGATCGGATCGATCGGAGTCACCTAGTGCAG,9770 fluorescence intensity (a.u.)
26,ACGTTGGTTGCCCTTTTTTTCGCTCAGTCCCCACGGCAAACGGAGTCACCTAGTGCAG,13500 fluorescence intensity (a.u.)
27,GTCTGCATTGAGGCTGCATTTCTGCATTGACCATCCTAGTCGGAGTCACCTAGTGCAG,8410 fluorescence intensity (a.u.)

# A stretch from the list above, for reference:
row,Sequence,binding signal
5,GCTCTCTCTCTCTCTCTCTCTCGCTGTCTCTCTCCCTCCCCGGAGTCACCTAGTGCAG,9110 fluorescence intensity (a.u.)
6,CTTTCCAGTTCCTTGTTTCTATCACACTCACTAGGACCAACGGAGTCACCTAGTGCAG,8900 fluorescence intensity (a.u.)
7,ATCCCCGGTCATCTCGCCTCGTCTCGTCCCGTCCCTGCGCCGGAGTCACCTAGTGCAG,15100 fluorescence intensity (a.u.)
